The record followed here is article PMC3900384.

No constants are given. Whether binding was seen depends on the method and setting. For some of these results: In cells and extracts the contact can be indirect. Some entries that bind do so weakly or less than the wild type. For some of these results: Sequences can lack the tags named with a protein.

The target in assay [1] is T1, AtRING1a (Arabidopsis thaliana) (UniProt Q9FKW0).
T1 sequence: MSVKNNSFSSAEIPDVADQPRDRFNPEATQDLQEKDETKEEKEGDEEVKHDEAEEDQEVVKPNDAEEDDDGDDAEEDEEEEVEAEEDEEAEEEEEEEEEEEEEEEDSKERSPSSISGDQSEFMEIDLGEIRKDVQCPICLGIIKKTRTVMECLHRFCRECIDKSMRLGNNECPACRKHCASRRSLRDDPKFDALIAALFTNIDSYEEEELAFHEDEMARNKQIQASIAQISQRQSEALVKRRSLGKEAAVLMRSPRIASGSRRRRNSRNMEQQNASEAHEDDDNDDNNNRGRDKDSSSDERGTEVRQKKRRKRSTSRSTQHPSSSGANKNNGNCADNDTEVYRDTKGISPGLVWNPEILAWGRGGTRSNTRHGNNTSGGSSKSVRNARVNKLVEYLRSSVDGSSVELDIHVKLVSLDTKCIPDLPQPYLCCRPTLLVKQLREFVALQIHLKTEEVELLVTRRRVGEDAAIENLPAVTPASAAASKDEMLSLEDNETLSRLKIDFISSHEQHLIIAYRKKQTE
Put plainly: two-hybrid; pairwise tests of pGBKT7 and pGADT7 constructs in S. cerevisiae PJ69-4a; growth on SD lacking Leu, Trp and Ade (SD-LTA).

The target in assay [2] is T2, AtRING1a-GFP (Arabidopsis thaliana) (UniProt Q9FKW0).
T2 sequence: T1 sequence
Put plainly: FRET or BRET; FLIM: GFP and RFP fusions transiently co-expressed in Nicotiana benthamiana leaves; decrease of GFP fluorescence lifetime in nuclei, more than 5% counted as interaction. In general terms: In BRET a luciferase serves as donor, and the signal depends on an acceptor being close.

For assay [3], the target named is T1, AtRING1a (Arabidopsis thaliana). Put plainly: two-hybrid; library screen: AtRING1a as bait (pGBKT7) against an Arabidopsis seedling cDNA library.
Assay [4] addresses T3, AtRING1aC (aa 238-522) (Arabidopsis thaliana) (UniProt Q9FKW0).
T3 sequence: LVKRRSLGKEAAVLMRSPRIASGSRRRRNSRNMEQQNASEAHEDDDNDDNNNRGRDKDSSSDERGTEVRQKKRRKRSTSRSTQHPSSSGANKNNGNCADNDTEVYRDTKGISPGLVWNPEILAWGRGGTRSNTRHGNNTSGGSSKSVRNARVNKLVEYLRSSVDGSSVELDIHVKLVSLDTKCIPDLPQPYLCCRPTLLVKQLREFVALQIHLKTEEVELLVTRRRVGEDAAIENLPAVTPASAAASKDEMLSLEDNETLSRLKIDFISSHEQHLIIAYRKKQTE
Briefly: two-hybrid; pairwise tests of pGBKT7 and pGADT7 constructs in S. cerevisiae PJ69-4a; growth on SD lacking Leu, Trp and Ade (SD-LTA).

In assay [5] the target is T4, GST-AL2 (Arabidopsis thaliana) (UniProt Q9SRM4).
T4 sequence: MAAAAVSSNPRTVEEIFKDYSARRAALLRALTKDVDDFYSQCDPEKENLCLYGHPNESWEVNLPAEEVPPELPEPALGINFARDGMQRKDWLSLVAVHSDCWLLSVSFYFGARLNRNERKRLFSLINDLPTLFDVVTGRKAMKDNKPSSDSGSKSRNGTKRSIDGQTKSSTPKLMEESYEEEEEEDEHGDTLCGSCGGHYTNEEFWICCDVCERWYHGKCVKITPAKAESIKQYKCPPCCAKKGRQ
Put plainly: pull-down; agarose beads coated with GST or GST fusion protein, incubated with total protein extracts of two-week-old transgenic Arabidopsis seedlings; Western blot with anti-FLAG or anti-GFP; only the target purified. Background: A western blot detects proteins with antibodies after separation by electrophoresis.

The target of assay [6] is T5, GST-AL6 (Arabidopsis thaliana) (UniProt Q8S8M9).
T5 sequence: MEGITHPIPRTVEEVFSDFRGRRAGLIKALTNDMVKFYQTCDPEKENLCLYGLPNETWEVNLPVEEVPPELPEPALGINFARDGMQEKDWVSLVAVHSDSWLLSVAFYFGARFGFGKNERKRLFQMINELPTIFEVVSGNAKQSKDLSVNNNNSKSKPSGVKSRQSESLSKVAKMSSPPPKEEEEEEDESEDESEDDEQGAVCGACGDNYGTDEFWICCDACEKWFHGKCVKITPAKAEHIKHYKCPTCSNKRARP
The description is as above.

Assay [7] concerns the target T6, GST-AL7 (Arabidopsis thaliana) (UniProt Q8LA16).
T6 sequence: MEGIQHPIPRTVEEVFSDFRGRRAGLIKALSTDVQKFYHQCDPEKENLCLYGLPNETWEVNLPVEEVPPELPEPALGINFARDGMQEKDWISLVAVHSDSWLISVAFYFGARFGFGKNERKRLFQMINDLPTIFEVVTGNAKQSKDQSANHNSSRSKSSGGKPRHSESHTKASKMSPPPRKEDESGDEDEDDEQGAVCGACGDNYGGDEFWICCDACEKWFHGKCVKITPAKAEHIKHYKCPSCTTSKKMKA
The assay is described as above.

Assay [8] addresses T7, GFP-AL6 (Arabidopsis thaliana) (UniProt Q8S8M9).
T7 sequence: T5 sequence
Briefly: co-IP; extracts of two-week-old Arabidopsis seedlings expressing GFP-AL6 and FLAG-AtRING1a; IP overnight at 4°C with polyclonal anti-GFP and protein A beads; lysis buffer 50 mM Tris-HCl pH 7, 150 mM NaCl, 0.5% Triton X-100, with DNaseI; blot with anti-FLAG.

B1: AL5 (protein, UniProt Q5XEM9 1-260)
chain: MEGGTAHYSPRTVEEVFRDFKGRRAGIIQALTTDVEDFFQQCDPEKQNLCLYGFPNEVWEVNLPAEEVPPELPEPALGINFARDGMQERNWLSLVAVHSDAWLLSVSFYFGSRFGFDRADRKRLFSMINEVPTVYEVVTGNAEKQTKEMPSSANQNGNRSKSNSKMRGLESKSSKTIHAKDEEEGLELEEGEEEEDEDEDEHGETLCGACGDNYASDEFWICCDMCEKWFHGECVKITPARAEHIKHYKCPTCSNKRARP
For B1, the binding result in assay [1] is given as “binds”.

B2: AL1 (protein, UniProt Q9FFF5 1-241)
chain: MAAESSNPRTVEEIFKDFSGRRSGFLRALSVDVDKFYSLCDPEMENLCLYGHPNGTWEVNLPAEEVPPELPEPALGINFARDGMQRKDWLSLVAVHSDCWLLSVSSYFGARLNRNERKRLFSLINDLPTLFEVVTGRKPIKDGKPSMDLGSKSRNGVKRSIEGQTKSTPKLMEESYEDEDDEHGDTLCGSCGGNYTNDEFWICCDVCERWYHGKCVKITPAKAESIKQYKCPSCCTKKGRQ
As to B2, the binding result in assay [1] was “binds”.

B3: RFP-AL1 (protein, UniProt Q9FFF5 1-241)
chain: B2 chain
For B3, the binding result in assay [2] is given as “binds”.

B4: AL6N (aa 1-162) (domain or fragment, UniProt Q8S8M9 1-162)
chain: MEGITHPIPRTVEEVFSDFRGRRAGLIKALTNDMVKFYQTCDPEKENLCLYGLPNETWEVNLPVEEVPPELPEPALGINFARDGMQEKDWVSLVAVHSDSWLLSVAFYFGARFGFGKNERKRLFQMINELPTIFEVVSGNAKQSKDLSVNNNNSKSKPSGVK
For B4, the binding entry in assay [3] and in assay [4] was “binds” each time.

B5: RFP-AL2 (protein, UniProt Q9SRM4 1-246)
chain: T4 sequence
B5: in assay [2], the binding entry is reported as “binds”.

B6: AL2 (protein, UniProt Q9SRM4 1-246)
chain: T4 sequence
B6: the binding result in assay [1] is “binds”.

B7: FLAG-AtRING1a (protein, UniProt Q9FKW0 1-522)
chain: T1 sequence
As to B7, the binding result in assay [5], in assay [6], in assay [7] and in assay [8] was “binds” throughout.

B8: AtRING1aN (aa 1-218) (domain or fragment, UniProt Q9FKW0 1-218)
chain: MSVKNNSFSSAEIPDVADQPRDRFNPEATQDLQEKDETKEEKEGDEEVKHDEAEEDQEVVKPNDAEEDDDGDDAEEDEEEEVEAEEDEEAEEEEEEEEEEEEEEEDSKERSPSSISGDQSEFMEIDLGEIRKDVQCPICLGIIKKTRTVMECLHRFCRECIDKSMRLGNNECPACRKHCASRRSLRDDPKFDALIAALFTNIDSYEEEELAFHEDEMA
Consider B8, for which the binding entry in assay [1] is “binds”.

B9: RFP-AL7 (protein, UniProt Q8LA16 1-252)
chain: T6 sequence
Consider B9, for which the binding result in assay [2] is given as “binds”.

B10: AL7 (protein, UniProt Q8LA16 1-252)
chain: T6 sequence
As for B10, the binding entry in assay [1] was “binds”.

B11: RFP-AL6 (protein, UniProt Q8S8M9 1-256)
chain: T5 sequence
B11: the binding result in assay [2] is listed as “binds”.

B12: AL6 (protein, UniProt Q8S8M9 1-256)
chain: T5 sequence
With B12, the binding result in assay [1] is listed as “binds”.
